PubChem BioAssay AID504764 | Drosophila RNAi Screening Center – 2011

Purpose: 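Genes whose knock-down alters Notch-dependent transcription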 (primary screen)
System: Drosophila Kc167 cells
Knock-down reagent: long dsRNA against Drosophila genes
Time to read-out: about 5 days (4 days dsRNA, then 24 h after transfection)
Challenge: transfection of constitutively active membrane-tethered Notch lacking the extracellular domain, read 24 h later
Measurement: 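Light from a Notch-responsive E(spl)m3 luciferase reporter under active Notch, with control-promoter and no-Notch reporter wells to normalise; raw counts from paired wells a and b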
Scale: induced reporter light, run 1, well a and induced reporter light, run 1, well b: higher = more light from the Notch target reporter with active Notch; control promoter light, run 1, well a and control promoter light, run 1, well b: higher = more light from the viral control promoter (cell number, transfection, viability); uninduced reporter light, run 1, well a: higher = more light from the Notch target reporter without active Notch
Call rule: 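Wells with low control signal or poorly matching duplicates excluded; duplicates averaged; per source plate, z beyond ±2 for induced/control log2 ratio or beyond ±1.8 for induced/uninduced marks a hit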
Meaning of the calls: active = modifier hit (raised or lowered Notch signal); inactive = not a hit
In all, the deposit lists about 22,000 reagents; this is an unselected part of those with a known target gene and a result. Of all reagents, 403 (1.9%) got an active call. 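Unnormalised raw counts per well; ratio z-scores behind the hit calls and whether each hit raises or lowers signal are not deposited.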 Names joined by + are all predicted targets of the reagent. No sequences are given here. Not stated in the record: the amount of reagent.

{"gene knocked down":"CG16957 (GeneID 34755)","dsRNA":"DRSC02545","induced reporter light, run 1, well a":1.46e5,"induced reporter light, run 1, well b":1.43e5,"control promoter light, run 1, well a":1.57e5,"control promoter light, run 1, well b":1.78e5,"uninduced reporter light, run 1, well a":12665,"Outcome":"inactive"}
{"gene knocked down":"Mer (GeneID 32979)","dsRNA":"DRSC20259","induced reporter light, run 1, well a":93160,"induced reporter light, run 1, well b":1.21e5,"control promoter light, run 1, well a":1.06e5,"control promoter light, run 1, well b":59480,"uninduced reporter light, run 1, well a":9050,"Outcome":"inactive"}
{"gene knocked down":"PH4alphaSG2 (GeneID 43623)","dsRNA":"DRSC15037","induced reporter light, run 1, well a":1.61e5,"induced reporter light, run 1, well b":1.67e5,"control promoter light, run 1, well a":2.18e5,"control promoter light, run 1, well b":2.34e5,"uninduced reporter light, run 1, well a":16245,"Outcome":"inactive"}
{"gene knocked down":"CG34012 (GeneID 3885632)","dsRNA":"DRSC09089","induced reporter light, run 1, well a":1.39e5,"induced reporter light, run 1, well b":1.63e5,"control promoter light, run 1, well a":1.49e5,"control promoter light, run 1, well b":1.62e5,"uninduced reporter light, run 1, well a":10820,"Outcome":"inactive"}
{"gene knocked down":"Exn (GeneID 39900)","dsRNA":"DRSC09673","induced reporter light, run 1, well a":99720,"induced reporter light, run 1, well b":1.06e5,"control promoter light, run 1, well a":76135,"control promoter light, run 1, well b":98320,"uninduced reporter light, run 1, well a":8765,"Outcome":"inactive"}
{"gene knocked down":"Exn (GeneID 39900)","dsRNA":"DRSC10077","induced reporter light, run 1, well a":2.48e5,"induced reporter light, run 1, well b":1.87e5,"control promoter light, run 1, well a":2.54e5,"control promoter light, run 1, well b":2.28e5,"uninduced reporter light, run 1, well a":9610,"Outcome":"inactive"}
{"gene knocked down":"CG6262 (GeneID 36833)","dsRNA":"DRSC06971","induced reporter light, run 1, well a":30925,"induced reporter light, run 1, well b":21440,"control promoter light, run 1, well a":24995,"control promoter light, run 1, well b":23870,"uninduced reporter light, run 1, well a":6520,"Outcome":"inactive"}
{"gene knocked down":"CG16888 (GeneID 34789)","dsRNA":"DRSC02541","induced reporter light, run 1, well a":1.75e5,"induced reporter light, run 1, well b":1.62e5,"control promoter light, run 1, well a":1.87e5,"control promoter light, run 1, well b":2.13e5,"uninduced reporter light, run 1, well a":15070,"Outcome":"inactive"}
{"gene knocked down":"CG15140 (GeneID 5740546)","dsRNA":"DRSC02440","induced reporter light, run 1, well a":1.10e5,"induced reporter light, run 1, well b":1.30e5,"control promoter light, run 1, well a":1.17e5,"control promoter light, run 1, well b":1.41e5,"uninduced reporter light, run 1, well a":8555,"Outcome":"inactive"}
{"gene knocked down":"CG42518 + MED9","dsRNA":"DRSC06917","induced reporter light, run 1, well a":45965,"induced reporter light, run 1, well b":49150,"control promoter light, run 1, well a":66655,"control promoter light, run 1, well b":62425,"uninduced reporter light, run 1, well a":3495,"Outcome":"inactive"}
{"gene knocked down":"jp (GeneID 34274)","dsRNA":"DRSC02213","induced reporter light, run 1, well a":2.29e5,"induced reporter light, run 1, well b":2.54e5,"control promoter light, run 1, well a":1.89e5,"control promoter light, run 1, well b":1.74e5,"uninduced reporter light, run 1, well a":16665,"Outcome":"inactive"}
{"gene knocked down":"jp (GeneID 34274)","dsRNA":"DRSC02744","induced reporter light, run 1, well a":66585,"induced reporter light, run 1, well b":57595,"control promoter light, run 1, well a":32360,"control promoter light, run 1, well b":34045,"uninduced reporter light, run 1, well a":10092,"Outcome":"inactive"}

2 consecutive reagents from above:
{"gene knocked down":"CG42518 + MED9","dsRNA":"DRSC06917","induced reporter light, run 1, well a":45965,"induced reporter light, run 1, well b":49150,"control promoter light, run 1, well a":66655,"control promoter light, run 1, well b":62425,"uninduced reporter light, run 1, well a":3495,"Outcome":"inactive"}
{"gene knocked down":"jp (GeneID 34274)","dsRNA":"DRSC02213","induced reporter light, run 1, well a":2.29e5,"induced reporter light, run 1, well b":2.54e5,"control promoter light, run 1, well a":1.89e5,"control promoter light, run 1, well b":1.74e5,"uninduced reporter light, run 1, well a":16665,"Outcome":"inactive"}
